No constants are given. Whether binding was seen depends on the method and setting.
Experiments:
[1] = target: calaxin (Ciona intestinalis) (UniProt Q8T893); test: SAXS; Mg2+-bound calaxin in solution, 0.25, 0.5, 1.0 and 2.0 mg/mL, 20 mM Tris-HCl (pH 8.0), 150 mM NaCl, 1 mM DTT, 10 mM MgCl2, 25 °C; Guinier analysis, molecular weight from I(0) with BSA as standard; both purified
[2] = target: calaxin (Ciona intestinalis) (UniProt Q8T893); test: SAXS; Ca2+-bound calaxin in solution, 0.25, 0.5, 1.0 and 1.75 mg/mL, 20 mM Tris-HCl (pH 8.0), 150 mM NaCl, 1 mM DTT, 10 mM CaCl2, 25 °C; Guinier analysis, molecular weight from I(0) with BSA as standard; both purified

B1: calaxin (protein, UniProt Q8T893 1-203)
chain: MSKKNQKLAEELYKTSCQKHFTKTEVESLIICYKNLLEGLKMDRNLFRDILHQKFNMTEDLLMDRVFRAFDKDSDSYISLTEWVEGLSVFLRGTLDEKMEYTFTVFDLNGDGYISREEMFQMLKTCLVKQPTEEDPDEGIKDLVEIALKKMDHDHDSRLSKKDFKDAVLIEPLLLEAFGKCLPDEKSSEIFEYHVLGVKQCRG
With B1 the binding [1] was “no binding (tested: 0.25, 0.5, 1.0 and 2.0 mg mL^-1)” and the binding [2] was “no binding (tested: 0.25, 0.5, 1.0 and 1.75 mg/mL)”.

Reference: paper PMC5792641
